Data as given in patent publication US6958321B2, “Isolation, characterization, cloning and use of a mushroom lectin” (The Regents of the University of Michigan, priority 2001, dated 2005).
These are yes or no findings as the source states them, for the method shown. Some binding calls cover weakened binding; strength is not graded here.

By UniProt entry, the sequences of proteins in these tests, tags left out. Where a name states a change or a piece, a line headed by the entry shows the natural chain unless it says otherwise.
UniProt P19137: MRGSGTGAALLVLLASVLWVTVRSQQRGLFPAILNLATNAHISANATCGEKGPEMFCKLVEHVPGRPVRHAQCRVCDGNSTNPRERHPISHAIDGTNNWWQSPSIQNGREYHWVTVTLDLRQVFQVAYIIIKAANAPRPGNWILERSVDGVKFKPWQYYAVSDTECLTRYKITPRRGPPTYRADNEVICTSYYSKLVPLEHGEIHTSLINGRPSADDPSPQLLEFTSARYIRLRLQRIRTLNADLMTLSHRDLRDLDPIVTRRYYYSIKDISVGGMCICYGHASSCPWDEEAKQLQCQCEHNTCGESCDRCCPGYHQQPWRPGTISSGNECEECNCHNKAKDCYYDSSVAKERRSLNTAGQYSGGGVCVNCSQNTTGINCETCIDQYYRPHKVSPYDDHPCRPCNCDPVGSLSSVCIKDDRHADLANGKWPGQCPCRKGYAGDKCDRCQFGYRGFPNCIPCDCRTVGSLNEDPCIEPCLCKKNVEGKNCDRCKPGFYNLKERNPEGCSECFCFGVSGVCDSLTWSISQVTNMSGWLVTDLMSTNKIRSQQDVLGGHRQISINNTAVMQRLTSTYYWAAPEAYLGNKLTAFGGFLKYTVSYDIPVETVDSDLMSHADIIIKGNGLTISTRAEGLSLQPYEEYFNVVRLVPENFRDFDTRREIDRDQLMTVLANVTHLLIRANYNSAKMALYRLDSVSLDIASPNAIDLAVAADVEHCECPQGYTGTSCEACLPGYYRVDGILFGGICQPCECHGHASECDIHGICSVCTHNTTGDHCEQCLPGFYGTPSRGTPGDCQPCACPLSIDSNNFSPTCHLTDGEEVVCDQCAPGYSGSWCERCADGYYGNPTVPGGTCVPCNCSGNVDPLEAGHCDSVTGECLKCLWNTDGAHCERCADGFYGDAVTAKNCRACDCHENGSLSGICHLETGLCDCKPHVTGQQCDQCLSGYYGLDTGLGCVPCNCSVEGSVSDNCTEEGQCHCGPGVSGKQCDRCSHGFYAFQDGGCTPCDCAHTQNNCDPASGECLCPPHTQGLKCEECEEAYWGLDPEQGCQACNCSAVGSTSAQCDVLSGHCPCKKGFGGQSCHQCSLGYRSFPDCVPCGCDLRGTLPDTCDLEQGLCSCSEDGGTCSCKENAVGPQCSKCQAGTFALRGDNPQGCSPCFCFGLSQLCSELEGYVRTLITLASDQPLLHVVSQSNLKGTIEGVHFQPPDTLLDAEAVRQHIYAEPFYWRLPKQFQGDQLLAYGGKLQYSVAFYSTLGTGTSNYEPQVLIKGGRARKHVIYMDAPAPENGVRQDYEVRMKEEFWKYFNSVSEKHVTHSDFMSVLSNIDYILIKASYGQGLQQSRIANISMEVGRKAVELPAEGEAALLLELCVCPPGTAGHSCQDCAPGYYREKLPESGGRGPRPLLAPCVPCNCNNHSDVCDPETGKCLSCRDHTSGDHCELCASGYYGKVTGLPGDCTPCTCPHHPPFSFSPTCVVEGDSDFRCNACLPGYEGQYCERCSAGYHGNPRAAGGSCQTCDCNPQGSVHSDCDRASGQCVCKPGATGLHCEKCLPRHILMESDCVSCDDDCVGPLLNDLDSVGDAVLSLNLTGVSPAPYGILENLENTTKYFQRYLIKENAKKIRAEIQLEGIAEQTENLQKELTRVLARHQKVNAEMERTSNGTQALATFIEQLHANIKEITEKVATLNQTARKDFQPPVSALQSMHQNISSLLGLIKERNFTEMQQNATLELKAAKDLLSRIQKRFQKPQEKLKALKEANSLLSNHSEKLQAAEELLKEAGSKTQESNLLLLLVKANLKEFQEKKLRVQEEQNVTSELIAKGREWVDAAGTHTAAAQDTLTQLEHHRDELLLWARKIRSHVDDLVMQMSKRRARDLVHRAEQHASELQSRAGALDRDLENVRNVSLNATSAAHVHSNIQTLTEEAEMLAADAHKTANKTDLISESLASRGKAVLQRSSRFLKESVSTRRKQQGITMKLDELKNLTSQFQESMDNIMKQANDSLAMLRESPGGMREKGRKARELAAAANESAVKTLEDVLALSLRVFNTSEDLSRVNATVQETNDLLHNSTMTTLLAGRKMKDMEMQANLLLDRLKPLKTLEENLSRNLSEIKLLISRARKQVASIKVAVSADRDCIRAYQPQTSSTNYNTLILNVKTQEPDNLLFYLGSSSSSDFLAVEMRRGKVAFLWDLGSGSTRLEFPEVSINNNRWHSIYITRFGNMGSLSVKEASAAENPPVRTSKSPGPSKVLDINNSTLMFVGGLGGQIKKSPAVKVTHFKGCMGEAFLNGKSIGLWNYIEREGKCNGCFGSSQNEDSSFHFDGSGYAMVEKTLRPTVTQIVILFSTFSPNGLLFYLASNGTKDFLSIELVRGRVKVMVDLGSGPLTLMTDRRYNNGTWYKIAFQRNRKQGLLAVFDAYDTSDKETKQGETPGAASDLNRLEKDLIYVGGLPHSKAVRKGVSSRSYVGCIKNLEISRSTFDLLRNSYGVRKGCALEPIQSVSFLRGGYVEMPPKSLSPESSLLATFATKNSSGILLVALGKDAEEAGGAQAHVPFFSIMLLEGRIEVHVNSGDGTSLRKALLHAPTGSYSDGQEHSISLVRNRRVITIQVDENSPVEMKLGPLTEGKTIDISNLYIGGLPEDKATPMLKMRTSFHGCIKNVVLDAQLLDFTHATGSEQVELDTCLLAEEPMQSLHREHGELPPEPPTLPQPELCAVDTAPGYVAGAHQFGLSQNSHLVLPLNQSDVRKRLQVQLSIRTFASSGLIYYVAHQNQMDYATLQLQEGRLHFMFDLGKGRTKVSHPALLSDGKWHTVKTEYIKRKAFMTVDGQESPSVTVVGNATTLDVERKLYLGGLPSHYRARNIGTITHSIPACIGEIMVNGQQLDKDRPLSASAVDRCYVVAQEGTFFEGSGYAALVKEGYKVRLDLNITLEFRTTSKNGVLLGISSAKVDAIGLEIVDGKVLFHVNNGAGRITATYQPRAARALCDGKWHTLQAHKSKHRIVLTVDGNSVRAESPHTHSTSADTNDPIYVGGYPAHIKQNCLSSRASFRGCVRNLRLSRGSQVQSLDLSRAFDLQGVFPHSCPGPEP

What was measured:
[1] = molecular target: Laminin purified from the EHS sarcoma (UniProt P19137); test: affinity chromatography on MOA-Sepharose 4B, PBS wash then elution with 20 mM 1,3-diaminopropane in 0.15 M NaCl, A280 of 1 ml fractions
[2] = molecular target: Laminin purified from the EHS sarcoma (UniProt P19137); test: affinity chromatography on MOA-Sepharose 4B

B1: Intact native Marasmius oreades agglutinin (MOA) prepared by the method of Example 2 (other)
chain: MSLRRGIYHIENAGVPSAIDLKDGSSSDGTPIVGWQFTPDTINWHQLWLAEPIPNVADTFTLCNLFSGTYMDLYNGSSEAGTAVNGWQGTAFTTNPHQLWTIKKSSDGTSYKIQNYGSKTFVDLVNGDSSDGAKIAGWTGTWDEGNPHQKWYFNRMSVSSAEAQAAIARNPHIHGTYRGYILDGEYLVLPNATFTQIWKDSGLPGSKWREQIYDCDDFAIAMKAAVGKWGADSWKANGFAIFCGVMLGVNKAGDAAHAYNFTLTKDHADIVFFEPQNGGYLNDIGYDSYMAFY
modifications: blocked N-terminus (possibly N-acetyl)
notes: also called native MOA; immobilized MOA
For B1, the binding [1] was “binds” and the binding [2] was “binds”.
